From publication PMC9485788
Results are given in words; binding and its absence hold for the method and conditions named. In cells and extracts the contact can be indirect. Some entries that bind do so weakly or less than the wild type. Where a sequence is shown, tags or fusion partners need not be part of it.

Amino acid sequences for entries named in this document (tags omitted). Residues count along the entry.
UniProt P05067, residues 672-713: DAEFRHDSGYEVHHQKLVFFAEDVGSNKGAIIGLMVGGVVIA

Target: β-Amyloid peptide 1–42 (Aβ_(1–42)) (UniProt P05067)
Test: pull-down; Aβ1-42 immobilised on protein A/G magnetic beads; supernatant of lysate of transfected Vero cells (24 h) mixed with the beads at 4 °C for 2 h; Western blot with anti-SCARB2 or anti-HA antibody; only the target purified

B1: SCARB2-Myc (scavenger receptor class B member 2) (receptor, UniProt Q14108 1-478)
chain: MGRCCFYTAGTLSLLLLVTSVTLLVARVFQKAVDQSIEKKIVLRNGTEAFDSWEKPPLPVYTQFYFFNVTNPEEILRGETPRVEEVGPYTYRELRNKANIQFGDNGTTISAVSNKAYVFERDQSVGDPKIDLIRTLNIPVLTVIEWSQVHFLREIIEAMLKAYQQKLFVTHTVDELLWGYKDEILSLIHVFRPDISPYFGLFYEKNGTNDGDYVFLTGEDSYLNFTKIVEWNGKTSLDWWITDKCNMINGTDGDSFHPLITKDEVLYVFPSDFCRSVYITFSDYESVQGLPAFRYKVPAEILANTSDNAGFCIPEGNCLGSGVLNVSICKNGAPIIMSFPHFYQADERFVSAIEGMHPNQEDHETFVDINPLTGIILKAAKRFQINIYVKKLDDFVETGDIRTMVFPVMYLNESVHIDKETASRLKSMINTTLIITNIPYIIMALGVFFGLVFTWLACKGQGSMDEGTADERAPLIRT
binding: binds
